# Laboratory results from the supplement of paper PMC12819154, “High-throughput peptide-centric local stability assay extends protein–ligand identification to membrane proteins, tissues and bacteria” (Nature Structural & Molecular Biology, 2025).
# Chains of the proteins cited; added tags and fusions are not shown. Lines headed by an entry give the natural chain unless they say otherwise; changes in a name come on top.
# UniProt Q9BUG6: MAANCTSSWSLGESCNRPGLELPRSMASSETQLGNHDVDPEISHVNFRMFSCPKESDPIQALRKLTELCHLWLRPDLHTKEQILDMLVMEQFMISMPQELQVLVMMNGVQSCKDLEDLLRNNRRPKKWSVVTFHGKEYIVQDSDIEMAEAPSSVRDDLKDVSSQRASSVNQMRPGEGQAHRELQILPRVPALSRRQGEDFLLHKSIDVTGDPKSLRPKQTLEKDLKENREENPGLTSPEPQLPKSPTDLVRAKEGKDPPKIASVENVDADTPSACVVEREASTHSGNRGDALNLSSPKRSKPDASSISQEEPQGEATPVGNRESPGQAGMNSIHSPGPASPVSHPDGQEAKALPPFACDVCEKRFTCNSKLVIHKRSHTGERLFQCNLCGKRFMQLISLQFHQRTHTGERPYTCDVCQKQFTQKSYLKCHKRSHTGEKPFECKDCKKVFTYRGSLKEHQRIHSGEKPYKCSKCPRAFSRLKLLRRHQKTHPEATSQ
# UniProt Q9BUL8: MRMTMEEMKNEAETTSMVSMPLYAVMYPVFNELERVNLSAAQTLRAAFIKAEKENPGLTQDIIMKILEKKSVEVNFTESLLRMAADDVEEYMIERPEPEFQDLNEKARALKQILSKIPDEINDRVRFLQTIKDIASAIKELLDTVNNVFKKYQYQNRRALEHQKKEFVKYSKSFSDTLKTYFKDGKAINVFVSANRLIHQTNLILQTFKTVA
# UniProt Q9BUJ2: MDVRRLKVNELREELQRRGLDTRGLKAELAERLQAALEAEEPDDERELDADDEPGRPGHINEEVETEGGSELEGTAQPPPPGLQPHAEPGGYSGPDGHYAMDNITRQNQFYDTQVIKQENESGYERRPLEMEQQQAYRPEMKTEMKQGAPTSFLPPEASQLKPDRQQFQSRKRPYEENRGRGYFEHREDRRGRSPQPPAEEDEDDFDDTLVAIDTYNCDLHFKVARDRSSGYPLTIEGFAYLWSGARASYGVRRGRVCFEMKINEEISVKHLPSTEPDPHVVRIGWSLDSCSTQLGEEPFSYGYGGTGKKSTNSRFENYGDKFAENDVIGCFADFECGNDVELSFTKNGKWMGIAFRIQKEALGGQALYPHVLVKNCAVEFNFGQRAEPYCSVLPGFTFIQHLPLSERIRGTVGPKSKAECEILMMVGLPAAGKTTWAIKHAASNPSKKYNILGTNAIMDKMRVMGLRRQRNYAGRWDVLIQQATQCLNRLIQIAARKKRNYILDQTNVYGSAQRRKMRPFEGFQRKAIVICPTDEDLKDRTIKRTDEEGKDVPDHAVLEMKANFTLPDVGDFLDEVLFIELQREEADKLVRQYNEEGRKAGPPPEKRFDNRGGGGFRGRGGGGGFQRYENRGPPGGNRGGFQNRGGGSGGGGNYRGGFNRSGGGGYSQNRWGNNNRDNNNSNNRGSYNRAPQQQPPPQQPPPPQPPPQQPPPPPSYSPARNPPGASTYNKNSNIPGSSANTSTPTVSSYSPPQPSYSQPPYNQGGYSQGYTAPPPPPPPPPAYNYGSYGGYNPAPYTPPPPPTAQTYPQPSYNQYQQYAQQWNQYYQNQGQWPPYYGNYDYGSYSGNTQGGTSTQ
# UniProt Q99501: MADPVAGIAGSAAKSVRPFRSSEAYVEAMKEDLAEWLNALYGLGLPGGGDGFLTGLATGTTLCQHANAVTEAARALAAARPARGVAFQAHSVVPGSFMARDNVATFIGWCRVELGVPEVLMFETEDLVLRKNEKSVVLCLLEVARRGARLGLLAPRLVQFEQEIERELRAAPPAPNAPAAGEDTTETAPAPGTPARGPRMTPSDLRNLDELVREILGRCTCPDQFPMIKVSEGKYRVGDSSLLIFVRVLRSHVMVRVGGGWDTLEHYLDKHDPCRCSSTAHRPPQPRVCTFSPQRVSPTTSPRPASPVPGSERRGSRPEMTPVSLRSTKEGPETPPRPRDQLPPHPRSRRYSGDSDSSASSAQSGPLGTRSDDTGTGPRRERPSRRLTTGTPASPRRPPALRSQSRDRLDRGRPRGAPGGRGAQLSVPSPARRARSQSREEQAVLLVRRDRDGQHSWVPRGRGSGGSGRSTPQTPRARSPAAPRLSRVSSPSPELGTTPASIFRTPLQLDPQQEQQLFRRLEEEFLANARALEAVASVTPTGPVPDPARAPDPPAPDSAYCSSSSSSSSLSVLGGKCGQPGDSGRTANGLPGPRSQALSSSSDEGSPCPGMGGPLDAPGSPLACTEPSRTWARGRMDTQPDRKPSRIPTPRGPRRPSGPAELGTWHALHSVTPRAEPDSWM
# UniProt Q9BSM1: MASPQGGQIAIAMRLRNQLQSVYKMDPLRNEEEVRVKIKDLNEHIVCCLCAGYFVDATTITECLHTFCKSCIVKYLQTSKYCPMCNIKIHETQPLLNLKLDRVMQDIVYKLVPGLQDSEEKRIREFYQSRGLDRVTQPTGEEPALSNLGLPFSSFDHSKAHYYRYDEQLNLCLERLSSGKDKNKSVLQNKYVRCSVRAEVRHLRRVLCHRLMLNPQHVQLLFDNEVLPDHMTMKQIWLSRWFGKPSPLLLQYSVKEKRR
# UniProt Q9BPX3, whole entry, looked up: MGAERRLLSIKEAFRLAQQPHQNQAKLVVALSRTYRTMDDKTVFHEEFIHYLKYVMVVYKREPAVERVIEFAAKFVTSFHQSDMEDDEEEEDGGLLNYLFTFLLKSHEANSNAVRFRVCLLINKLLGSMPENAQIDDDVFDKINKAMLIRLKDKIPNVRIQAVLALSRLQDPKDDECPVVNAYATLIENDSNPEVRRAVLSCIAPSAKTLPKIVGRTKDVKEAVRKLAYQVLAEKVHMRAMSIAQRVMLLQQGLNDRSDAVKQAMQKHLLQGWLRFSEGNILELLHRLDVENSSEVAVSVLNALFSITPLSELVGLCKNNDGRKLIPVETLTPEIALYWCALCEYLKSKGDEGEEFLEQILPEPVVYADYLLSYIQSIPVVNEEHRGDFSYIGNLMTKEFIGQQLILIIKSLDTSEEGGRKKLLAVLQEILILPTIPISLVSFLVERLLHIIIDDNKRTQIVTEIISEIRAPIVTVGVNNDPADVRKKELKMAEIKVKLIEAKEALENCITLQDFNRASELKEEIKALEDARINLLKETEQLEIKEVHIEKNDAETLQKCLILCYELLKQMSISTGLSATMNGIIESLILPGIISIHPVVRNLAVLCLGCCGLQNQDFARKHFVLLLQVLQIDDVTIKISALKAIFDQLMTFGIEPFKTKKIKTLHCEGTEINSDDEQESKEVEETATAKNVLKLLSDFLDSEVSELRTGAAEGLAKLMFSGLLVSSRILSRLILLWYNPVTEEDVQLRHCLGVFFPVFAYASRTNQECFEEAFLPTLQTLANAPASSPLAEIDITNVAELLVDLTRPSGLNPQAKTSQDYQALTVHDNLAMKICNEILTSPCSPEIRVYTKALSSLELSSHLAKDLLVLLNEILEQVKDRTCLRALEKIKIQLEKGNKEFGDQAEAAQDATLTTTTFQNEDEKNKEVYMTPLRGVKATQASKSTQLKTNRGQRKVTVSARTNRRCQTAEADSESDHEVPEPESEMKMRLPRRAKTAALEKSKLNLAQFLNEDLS
# UniProt Q9BQ39: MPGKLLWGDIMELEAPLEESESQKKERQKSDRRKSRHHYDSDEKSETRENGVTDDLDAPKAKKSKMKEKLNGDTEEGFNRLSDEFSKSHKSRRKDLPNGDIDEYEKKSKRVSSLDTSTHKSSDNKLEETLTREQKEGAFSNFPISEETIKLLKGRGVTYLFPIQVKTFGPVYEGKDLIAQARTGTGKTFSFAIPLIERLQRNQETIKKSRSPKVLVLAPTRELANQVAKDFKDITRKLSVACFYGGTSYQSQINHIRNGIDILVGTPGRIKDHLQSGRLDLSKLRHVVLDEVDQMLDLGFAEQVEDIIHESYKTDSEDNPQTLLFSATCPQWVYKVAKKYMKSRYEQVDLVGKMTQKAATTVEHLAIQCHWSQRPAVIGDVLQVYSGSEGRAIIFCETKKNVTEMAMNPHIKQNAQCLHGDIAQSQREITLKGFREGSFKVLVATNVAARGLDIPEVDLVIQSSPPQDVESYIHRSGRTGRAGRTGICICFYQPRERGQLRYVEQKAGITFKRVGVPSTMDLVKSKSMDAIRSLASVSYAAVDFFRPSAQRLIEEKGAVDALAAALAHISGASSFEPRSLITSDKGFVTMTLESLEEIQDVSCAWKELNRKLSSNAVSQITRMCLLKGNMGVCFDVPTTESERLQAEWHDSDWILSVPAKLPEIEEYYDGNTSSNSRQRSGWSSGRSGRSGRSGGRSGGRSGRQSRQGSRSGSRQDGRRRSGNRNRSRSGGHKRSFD
# This is one part of the list. Most entries show no effect beyond the scatter of the controls.
# Compound: CN[C@@H]1C[C@H]2O[C@@](C)([C@@H]1OC)n1c3ccccc3c3c4c(c5c6ccccc6n2c5c31)C(=O)NC4 [staurosporine]
# Test: log2 fold change of tryptic peptide abundance, ligand vs vehicle (limited proteolysis) (log2 ratio); higher = more trypsin-susceptible (destabilized)
# Settings: ligand concentration: 20 uM; sample: K562 cleared lysate; digestion: 4 min, 22 C (HT-PELSA RT4min, Orbitrap Astral)
row,Target,log2 fold change
1,"UniProt Q9BUG6 (peptide sequence: ASSVNQMRPGEGQAHR, peptide start residue: 166)",-0.251
2,"PDCD10 (peptide sequence: MTMEEMK, peptide start residue: 3) (UniProt Q9BUL8)",0.298
3,"HNRNPUL1 (peptide sequence: LKVNELR, peptide start residue: 6) (UniProt Q9BUJ2)",-0.118
4,"UniProt Q99501 (peptide sequence: RPSGPAELGTWHALHSVTPR, peptide start residue: 655)",-0.329
5,"PCGF1 (peptide sequence: LVPGLQDSEEKR, peptide start residue: 111) (UniProt Q9BSM1)",-0.0649
6,"NCAPG (peptide sequence: AIFDQLMTFGIEPFKTK, peptide start residue: 644) (UniProt Q9BPX3)",-0.145
7,"DDX50 (peptide sequence: IKDHLQSGR, peptide start residue: 270) (UniProt Q9BQ39)",0.634
